Assay results from patent US20180037641A1.
Results are given in words; binding and its absence hold for the method and conditions named. Some entries that bind do so weakly or less than the wild type.

By UniProt entry, the sequences of proteins in these tests, tags left out. Where a name states a change or a piece, a line headed by the entry shows the natural chain unless it says otherwise.
UniProt P10636: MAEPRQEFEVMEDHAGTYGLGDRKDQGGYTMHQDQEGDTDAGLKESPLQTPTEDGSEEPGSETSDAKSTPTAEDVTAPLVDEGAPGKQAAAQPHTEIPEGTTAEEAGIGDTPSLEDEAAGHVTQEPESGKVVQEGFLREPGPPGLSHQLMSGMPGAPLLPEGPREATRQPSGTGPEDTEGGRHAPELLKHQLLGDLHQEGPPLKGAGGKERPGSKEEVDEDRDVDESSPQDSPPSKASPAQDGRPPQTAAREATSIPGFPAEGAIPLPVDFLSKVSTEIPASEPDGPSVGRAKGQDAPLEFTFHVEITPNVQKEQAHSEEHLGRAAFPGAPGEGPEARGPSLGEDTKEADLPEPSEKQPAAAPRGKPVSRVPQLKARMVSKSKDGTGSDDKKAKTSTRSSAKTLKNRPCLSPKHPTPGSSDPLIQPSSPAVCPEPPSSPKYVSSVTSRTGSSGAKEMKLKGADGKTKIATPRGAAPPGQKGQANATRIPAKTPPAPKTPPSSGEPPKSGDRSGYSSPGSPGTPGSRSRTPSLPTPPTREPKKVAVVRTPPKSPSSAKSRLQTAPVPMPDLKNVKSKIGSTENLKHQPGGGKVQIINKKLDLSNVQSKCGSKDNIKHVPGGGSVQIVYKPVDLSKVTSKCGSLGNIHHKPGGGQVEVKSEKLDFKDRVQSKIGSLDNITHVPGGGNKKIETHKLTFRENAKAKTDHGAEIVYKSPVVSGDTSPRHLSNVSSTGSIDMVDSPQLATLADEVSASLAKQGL

How the values were obtained:
[1] = target: tau in neurofibrillary tangles (human) (UniProt P10636); assay: staining, not described
[2] = target: tau in neurofibrillary tangles (human) (UniProt P10636); assay: immunostaining of human AD frontal cortex with biotinylated HJ8.5
[3] = target: human tau fibrils (human) (UniProt P10636); assay: SPR (Biacore), human tau fibrils immobilised, antibody injected
[4] = target: tau in neurofibrillary tangles (human) (UniProt P10636); assay: staining of human AD brain NFT's
[5] = target: tau in neurofibrillary tangles (human) (UniProt P10636); assay: immunostaining of human AD brain sections
[6] = target: human tau fibrils (human) (UniProt P10636); assay: SPR, human tau fibrils immobilised on CM-5 chip (FIG. 31); rates could not be calculated

binding [1]: binds
binding [2]: binds
binding [3]: binds
binding [4]: binds
binding [5]: binds
binding [6]: binds
B1: HJ8.5 (antibody, V domains shown)
VH: EVKVEESGGGLVQPGGSMKLSCVVSGFTFSNYWVNWVRQSPEKGLEWVAQIRLKSDNYATHYEESVKGRFTISRDDSKSSVYLQMNNLRAEDSGIYYCTNWEDYWGQGTTLTVSS
VL: DIVLTQSPASLAVSLGQRATISCRASQSVSTSRYSYIHWYQQKPGQPPKLLIKYASNLESGVPARFSGSGSGTDFTLNIHPLEEEDAATYYCHHSWEIPLTFGAGTKLELK
